According to PubChem BioAssay AID540276 (National Center for Advancing Translational Sciences (NCATS), 2011):
About 5,400 (1.8%) of roughly 300,000 compounds were called active. The inconclusive results got no clear call from the source; some entries with a clear call stand among them for comparison. Calls come from the whole dose curve; tested in HEK293 cells. Potencies beside an inconclusive call are fits to weak or partial responses and may not hold up.

Assay: qHTS for inhibitors of binding or entry into cells for Marburg Virus
Settings: Marburg virus pseudotyped entry inhibition, cell reporter; activity change, negative = inhibition: at 37.8 µM (top of the series) unless noted
% is set by controls: 0 for no effect and ±100 for the full control effect; potency is the fitted concentration of half-maximal effect.

Row | Structure (SMILES) | Potency | activity change, negative = inhibition
1 | COC(=O)c1ccc(N=NN2CCCCCC2)cc1 | inconclusive: 2.31 µM [activator, partial curve] | –
2 | CCCCC(C(=O)NC1CCCC1)N(C(=O)c1snc(C(N)=O)c1N)c1ccc(F)cc1 (centres undefined) | inconclusive: 35.5 µM [inhibitor, single point] | –
3 | Cc1cccc(OCC(=O)N(Cc2sccc2C)C2CCS(=O)(=O)C2)c1 (centres undefined) | – | inactive: -5.37% [at 46.1 µM]
4 | O=C(Oc1ccc2ccc(OC(=O)N3CCCCCC3)cc2c1)N1CCCCCC1 | inconclusive: 35.5 µM [inhibitor, single point] | –
5 | Cc1nnsc1NC(=O)OCCCl | inconclusive: 31.6 µM [activator, single point] | –
6 | CCCn1nnc(NC(=O)/C=C/c2ccco2)n1 | – | inactive: 0.46% [at 46.1 µM]
7 | CC(C)(C)NC(=O)CSc1nc(O)cc(=O)n1-c1ccccc1 | – | inactive: 8.75%
8 | Cc1nc2nc(-c3ccc(Cl)cc3)cn2nc1C | – | inactive: -11.7%
9 | Cc1cc(OCc2nc(N)nc(N)c2-c2ccc(Cl)c(Cl)c2)ccc1[N+](=O)[O-] | inconclusive: 2 µM [inhibitor, full curve, poor fit] | –
10 | CC1COC(Cn2c3ccccc3c3ccccc32)O1 (centres undefined) | inconclusive: 14.1 µM [inhibitor, single point] | –
11 | Cc1ccccc1C(=O)NC(NCc1ccco1)C(Cl)(Cl)Cl (centres undefined) | inconclusive: 4.61 µM [activator, partial curve, poor fit] | –
12 | CCc1c(C)nc2nc(SCc3ccccc3Cl)[nH]n2c1=O | inconclusive: 12.6 µM [inhibitor, partial curve, poor fit] | –
13 | CC(NC(=O)c1cccc(Br)c1)c1ccccc1 (centres undefined) | inconclusive: 3.16 µM [inhibitor, partial curve, poor fit] | –
14 | Cc1ccc(SCCC(=O)N2CCC(C)CC2)cc1 | – | inactive: 1.71%
15 | Cc1cccc(N=Nc2ccc(O)c3ncccc23)c1 | active: 4.47 µM | –
16 | c1csc(-c2noc(COc3ccc4c(c3)CCCC4)n2)c1 | inconclusive: 2.59 µM [activator, partial curve] | –
17 | C=CCNc1oc(-c2ccc(OC)cc2)nc1C#N | – | inactive: -20.5%
18 | Cc1c(NC(=O)/C(C#N)=C/c2ccc(-c3cc(Cl)ccc3Cl)o2)c(=O)n(-c2ccccc2)n1C | – | inactive: 5.09%
19 | CCCCn1c(SCC(=O)N2CCCC2)nnc1-c1ccccc1 | inconclusive: 2.31 µM [inhibitor, partial curve] | –
20 | CSCc1ccc(C(=O)NCc2ccc(F)cc2)cc1 | inconclusive: 11.2 µM [activator, partial curve] | –
21 | O=C(CCNC(=O)c1ccccc1)NCCc1ccc(Cl)cc1 | – | inactive: -1.29% [at 46.1 µM]
22 | Cc1c2cnn(CC(=O)NC(C)C)c(=O)c2c(C)n1Cc1ccccc1Cl | inconclusive: 3.98 µM [activator, full curve] | –
23 | COc1ccc(C(=O)OC(C(=O)c2ccc(C)cc2)c2ccccc2)cc1 (centres undefined) | – | inactive: 1.62%
24 | Clc1ccc(CNc2ccc(N3CCN(Cc4ccccc4)CC3)cc2)cc1 | inconclusive: 20 µM [inhibitor, single point] | –
25 | c1ccc2[nH]c(-c3ccncc3)nc2c1 | inconclusive: 0.316 µM [inhibitor, full curve, poor fit] | –

Row | Structure (SMILES) | Potency | activity change, negative = inhibition
26 | CC(=O)c1cccc(NC(=O)CCCOc2ccc(C)cc2)c1 | – | inactive: 5.33%
27 | CC(C)(Cc1ccc(O)cc1)NC(=O)CC(=O)N=Nc1c(O)[nH]c2ccc(Br)cc12 | – | inactive: -4.67% [at 46.1 µM]
28 | O=C(CCl)N(c1ccccc1)c1c[nH]c2ccccc12 | inconclusive: 12.6 µM [inhibitor, single point] | –
29 | Cc1cccc(C)c1NC(=S)NNc1ncc(C(F)(F)F)cc1Cl | inconclusive: 17.8 µM [inhibitor, single point] | –
30 | CCc1noc(C)c1C(=O)Nc1ccc(Cl)c(S(=O)(=O)N2CCCCC2)c1 | inconclusive: 35.5 µM [inhibitor, single point] | –
31 | COc1ccccc1/C=C/c1nc(C#N)c(N(C)C)o1 | inconclusive: 3.98 µM [activator, partial curve, poor fit] | –
32 | Cn1ncc(N2CCN(C(=O)c3ccc(Cl)cc3)CC2)c(Cl)c1=O | – | inactive: 28.3% [at 46.1 µM]
33 | CCOC(=O)N1CCc2c(sc3c2c(=O)n(-c2ccc(CC)cc2)c(=O)n3CC(=O)c2ccc(F)cc2)C1 | – | inactive: -6.9% [at 46.1 µM]
34 | Cc1c2cnn(CC(=O)Nc3cccc(C(F)(F)F)c3)c(=O)c2c(C)n1Cc1ccccc1Cl | inconclusive: 0.562 µM [inhibitor, full curve, poor fit] | –
35 | O=C1CC(Sc2ncccc2C(=O)O)C(=O)N1 (centres undefined) | – | inactive: 3.07% [at 46.1 µM]
36 | O=C(CCNC(=O)c1ccccc1)N/N=C/c1ccc([N+](=O)[O-])cc1 | – | inactive: -6.74% [at 46.1 µM]
37 | CN1CCN(S(=O)(=O)c2ccc(SCCOc3ccc(Cl)cc3)nc2)CC1 | inconclusive: 35.5 µM [inhibitor, single point] | –
38 | CCOC(=O)N/N=C1\C[C@@H](O)[C@@H](O)[C@@H]2[C@@H]3C(=O)N(C4CCCCC4)C(=O)[C@@H]3CC[C@H]12 | – | inactive: -24.9% [at 14.2 µM]
39 | CC(C)C(C(=O)Nc1nccs1)c1ccc(Cl)cc1 (centres undefined) | inconclusive: 6.31 µM [inhibitor, single point] | –
40 | Oc1c(Br)cc2oc3c(c2c1CNCc1ccccc1)CCCC3 | inconclusive: 35.5 µM [inhibitor, single point] | –
41 | CCCC(CCC)C(=O)Nc1ccc2c(c1)N(C(=O)CCN1CCN(C)CC1)c1ccccc1CC2 | active: 11.2 µM | –
42 | CNCc1c(OCc2ccccc2F)ccc2ccccc12 | inconclusive: 17.8 µM [inhibitor, partial curve, poor fit] | –
43 | COc1ccc(-n2cnnc2SCC(=O)c2cc(C)n(Cc3cccs3)c2C)cc1 | – | inactive: 8.59%
44 | Cc1ccc(S(=O)(=O)NCc2c(Cl)cccc2Oc2ccccc2)cc1 | inconclusive: 3.16 µM [activator, partial curve, poor fit] | –
45 | CCCCCCn1c(SCCCC)nc2c1c(=O)[nH]c(=O)n2C | – | inactive: -15.4%
46 | O=C1CN=C(c2ccccc2Cl)c2cc(Br)ccc2N1 | inconclusive: 7.94 µM [inhibitor, partial curve, poor fit] | –
47 | Cc1cc(C)n2cc(CSc3nc4ccccc4s3)nc2n1 | inconclusive: 0.891 µM [activator, single point] | –
48 | CN(C)S(=O)(=O)c1cccc(-c2csc(N/N=C/c3ccco3)n2)c1 | – | inactive: -26% [at 46.1 µM]
49 | COc1ccc(NC(=O)CSc2ncnc3c2cnn3CCc2ccccc2)cc1 | inconclusive: 35.5 µM [inhibitor, single point] | –
50 | CCN(c1ccc(OC)cc1)S(=O)(=O)c1ccc2c(c1)CCN2C(=O)CCC(=O)O | inconclusive: 0.259 µM [inhibitor, full curve, poor fit] | –

An excerpt of these results, in CSV form:
Row,Structure (SMILES),Potency,"activity change, negative = inhibition"
3,Cc1cccc(OCC(=O)N(Cc2sccc2C)C2CCS(=O)(=O)C2)c1 (centres undefined),–,inactive: -5.37% [at 46.1 µM]
22,Cc1c2cnn(CC(=O)NC(C)C)c(=O)c2c(C)n1Cc1ccccc1Cl,"inconclusive: 3.98 µM [activator, full curve]",–
25,c1ccc2[nH]c(-c3ccncc3)nc2c1,"inconclusive: 0.316 µM [inhibitor, full curve, poor fit]",–
32,Cn1ncc(N2CCN(C(=O)c3ccc(Cl)cc3)CC2)c(Cl)c1=O,–,inactive: 28.3% [at 46.1 µM]

Remaining list, next part:

Row | Structure (SMILES) | Potency | activity change, negative = inhibition
51 | Cc1ccc(O)c(-c2cc(-c3cccc(F)c3)n[nH]2)c1 | inconclusive: 10.3 µM [inhibitor, partial curve, poor fit] | –
52 | CCc1ccc(C(=O)c2cn(CC(=O)Nc3ccc(OC)cc3OC)c3ccc(CC)cc3c2=O)cc1 | inconclusive: 35.5 µM [inhibitor, single point] | –
53 | CCC(C)(C)c1ccc(Oc2ccc(N)cc2)cc1 | active: 3.98 µM | –
54 | O=C(COC(=O)c1ccco1)c1ccc2ccccc2c1 | – | inactive: -5.79% [at 46.1 µM]
55 | Cc1cc(Br)ccc1NC(=O)c1cnc(N2CCN(c3ccccn3)CC2)c2ccccc12 | active: 9.2 µM | –
56 | CC(=O)OC[C@H]1O[C@H](C#CCCCc2ccccc2)C=C[C@H]1OC(C)=O | inconclusive: 0.0038 µM [inhibitor, full curve, poor fit] | –
57 | CCn1c(CNc2ccc(Cl)cc2)nnc1SCc1ccc(Cl)cc1 | inconclusive: 29.1 µM [inhibitor, single point] | –
58 | COc1ccc(CCN(C)CC(O)c2ccccc2)cc1OC (centres undefined) | – | inactive: 3.18% [at 46.1 µM]
59 | COc1ccc([N+](=O)[O-])cc1NC(=O)CCN1CCN(c2ccccc2)CC1 | inconclusive: 2.51 µM [inhibitor, full curve, poor fit] | –
60 | O/N=C/c1ccccc1OCc1ccccc1Cl | – | inactive: 21.5%
61 | COc1ccc(CCCc2nnc(SCC(=O)Nc3ccc(C)cc3C)o2)cc1 | – | inactive: -4.79% [at 46.1 µM]
62 | COc1ccccc1-c1noc(-c2ccco2)n1 | inconclusive: 0.282 µM [activator, full curve, poor fit] | –
63 | O=C(NCc1ccco1)c1cnn2c(C(F)(F)F)cc(-c3ccccc3)nc12 | inconclusive: 16.4 µM [inhibitor, partial curve, poor fit] | –
64 | CCN(CC)c1ccc(/C=N\N2CCN(Cc3ccc(C)cc3)CC2)cc1 | – | inactive: -8.67% [at 46.1 µM]
65 | CCOC(=O)CC1C(=O)n2nc(C)c(-c3ccc(Cl)cc3)c2N=C1C (centres undefined) | inconclusive: 20.6 µM [inhibitor, single point] | –
66 | Cc1cc(F)ccc1NCc1ccccc1-c1nnc(-c2ccccc2Cl)o1 | – | inactive: -2.06% [at 46.1 µM]
67 | O=S(=O)(c1ccc2ccccc2c1)N(CC1CO1)c1ccccc1 (centres undefined) | inconclusive: 3.16 µM [inhibitor, partial curve, poor fit] | –
68 | COc1ccc(CCN2C(=O)CSC2=Nc2ccc(C)cc2C)cc1OC | inconclusive: 11.2 µM [inhibitor, single point] | –
69 | O=C(CCNC(=O)C1CCN(S(=O)(=O)c2ccccc2)CC1)NCc1ccccc1Cl | – | inactive: -2.77% [at 46.1 µM]
70 | O=C(COC(=O)CCC(=O)c1ccc(F)cc1)Nc1ccccc1 | – | inactive: 2.33% [at 46.1 µM]
71 | C/C(=N\NC(=O)c1cccc(S(=O)(=O)Nc2cccc(Cl)c2)c1)c1cccs1 | inconclusive: 2.51 µM [inhibitor, single point] | –
72 | Cc1nc2ccc(N=NC3=C(O)CCCC3=O)cc2s1 | – | inactive: -3.58% [at 46.1 µM]
73 | CC1(C)SC(=S)N(NC(=O)Nc2cccc3ccccc23)C1N(O)C(=O)Nc1ccccc1 (centres undefined) | inconclusive: 31.6 µM [inhibitor, partial curve, poor fit] | –
74 | CNC(=O)NC(=O)Cn1nc2n(c1=O)-c1ccccc1SC2 | inconclusive: 2.82 µM [inhibitor, single point] | –
